# Small-molecule microarray binding calls

Targets (5′ to 3′):
T1: SAM-II riboswitch RNA pseudoknot, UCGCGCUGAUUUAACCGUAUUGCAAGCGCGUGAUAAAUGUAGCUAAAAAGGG. About 21,000 compounds screened, about 200 hits.
T2: PreQ1 riboswitch RNA pseudoknot, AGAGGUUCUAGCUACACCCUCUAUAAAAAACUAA. From B. subtilis. About 24,000 compounds screened, about 170 hits.
T3: TPP riboswitch RNA three-way junction, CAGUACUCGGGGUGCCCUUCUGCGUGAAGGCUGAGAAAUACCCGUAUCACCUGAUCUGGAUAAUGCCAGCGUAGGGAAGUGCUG. About 24,000 compounds screened, about 160 hits.

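Compounds were printed on reactive glass slides in duplicate spots, a dye-labelled oligonucleotide was laid over them, and the fluorescence left after washing was read. The data file lists only calls. An earlier report of the laboratory on the PreQ1, TPP and SAM-II riboswitches (doi:10.1038/s41467-019-09493-3) used 1 µM RNA for 2 h and required a mean Z-score above 3 (spot signal-to-noise against the whole library), a score well above that on a control array, and duplicate spots agreeing (coefficient of variation under 100); it then also set aside compounds that hit other targets, which this list keeps. The cut-offs behind this list may differ. A missing hit is not proof of no binding, and a hit is not a measured affinity.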 A compound is marked hit if it was called a hit and no hit if it was screened but was not. This is an unselected part of the compounds tested. A target missing from an entry has no call listed here.

For COC(=O)c1cc(Br)cc(C(=O)OC)c1NCc1ccc(F)cc1 the calls were T2: no hit; T3: no hit. Calls for NCCc1nnc(SCc2ccc(Cl)cc2)o1 are T1: no hit; T2: no hit; T3: no hit. Calls for Cl.OC(COc1ccc2ccccc2c1)CN1CCCCC1 (stereo unspecified) are T1: no hit; T2: no hit; T3: no hit. With CCC(O)c1nc2ccccc2n1Cc1ccccc1C (stereo unspecified) the screen gave T2: no hit; T3: no hit. With COC(=O)c1cc(OCC2CCC2)cc(C(=O)N2CCN(C)C(CO)C2)c1 (stereo unspecified) the screen gave T1: no hit; T2: no hit; T3: no hit. With Nc1nn2cnnc2s1 the screen gave T1: no hit; T2: no hit; T3: no hit. Calls for CN[C@@H](C)[C@H]1[C@H](O)C[C@@]2(C)[C@@H]3CC[C@H]4C(C)(C)[C@@H](NC)CC[C@@]45C[C@@]35CC[C@]12C are T1: no hit; T2: no hit; T3: no hit.

OCCn1nc(COc2cccc(F)c2)nc1-c1cnc2c(c1)CCC2 was scored T1: no hit; T2: no hit; T3: no hit. For O=S1(=O)N=C(N2CCN(CCO)CC2)c2ccccc21 the calls were T1: no hit; T2: no hit; T3: no hit. CN(C)CCNc1ncnc2[nH]cnc12 was scored T1: no hit; T2: no hit; T3: no hit. Calls for Clc1ccccc1C1(c2ccnc(CCc3ccccc3)n2)CCNCC1 are T1: no hit; T2: no hit; T3: no hit. COc1ccc(-c2nc3nc(C)cc(Nc4ccccc4Cl)n3n2)cc1 was scored T2: no hit; T3: no hit. For COc1cccc(CNCc2ccc3c(c2)OCO3)c1OC the calls were T1: no hit; T2: no hit; T3: no hit. Calls for COc1cc(N2CCCC(CO)(CC=C(C)C)C2)ncn1 (stereo unspecified) are T1: no hit; T2: no hit; T3: no hit.

Calls for CN(C)C[C@H]1C[C@H](CO)CN(C(=O)c2csc(-c3ccncc3)n2)C1 are T1: no hit; T2: no hit; T3: no hit. Calls for CON(C)C(=O)N1N=C(c2cc(F)ccc2F)S[C@]1(CCCN)c1ccccc1 are T1: no hit; T2: no hit; T3: no hit. Calls for Nc1nc(N)c(/C=N/c2ccc(Br)cc2)c(Nc2ccc(Br)cc2)n1 are T1: hit; T2: no hit; T3: hit. For CCOCc1nc2c(c(N(C)Cc3ccsc3)n1)CCNCC2 the calls were T1: no hit; T2: no hit; T3: no hit.

The last 2 entries again:

structure	T1	T2	T3
Nc1nc(N)c(/C=N/c2ccc(Br)cc2)c(Nc2ccc(Br)cc2)n1	hit	no hit	hit
CCOCc1nc2c(c(N(C)Cc3ccsc3)n1)CCNCC2	no hit	no hit	no hit

Data from the ROBIN nucleic acid binder screens, doi:10.1002/anie.202211358.